In article PMC3416671:
Results are given in words; binding and its absence hold for the method and conditions named. In cells and extracts the contact can be indirect. Some entries that bind do so weakly or less than the wild type. For some of these results: Sequences can lack the tags named with a protein. Values belong to the substance of their own block, whether it stands above or below them.

By UniProt entry, the sequences of proteins in these tests, tags left out. Where a name states a change or a piece, a line headed by the entry shows the natural chain unless it says otherwise.
UniProt Q8C863: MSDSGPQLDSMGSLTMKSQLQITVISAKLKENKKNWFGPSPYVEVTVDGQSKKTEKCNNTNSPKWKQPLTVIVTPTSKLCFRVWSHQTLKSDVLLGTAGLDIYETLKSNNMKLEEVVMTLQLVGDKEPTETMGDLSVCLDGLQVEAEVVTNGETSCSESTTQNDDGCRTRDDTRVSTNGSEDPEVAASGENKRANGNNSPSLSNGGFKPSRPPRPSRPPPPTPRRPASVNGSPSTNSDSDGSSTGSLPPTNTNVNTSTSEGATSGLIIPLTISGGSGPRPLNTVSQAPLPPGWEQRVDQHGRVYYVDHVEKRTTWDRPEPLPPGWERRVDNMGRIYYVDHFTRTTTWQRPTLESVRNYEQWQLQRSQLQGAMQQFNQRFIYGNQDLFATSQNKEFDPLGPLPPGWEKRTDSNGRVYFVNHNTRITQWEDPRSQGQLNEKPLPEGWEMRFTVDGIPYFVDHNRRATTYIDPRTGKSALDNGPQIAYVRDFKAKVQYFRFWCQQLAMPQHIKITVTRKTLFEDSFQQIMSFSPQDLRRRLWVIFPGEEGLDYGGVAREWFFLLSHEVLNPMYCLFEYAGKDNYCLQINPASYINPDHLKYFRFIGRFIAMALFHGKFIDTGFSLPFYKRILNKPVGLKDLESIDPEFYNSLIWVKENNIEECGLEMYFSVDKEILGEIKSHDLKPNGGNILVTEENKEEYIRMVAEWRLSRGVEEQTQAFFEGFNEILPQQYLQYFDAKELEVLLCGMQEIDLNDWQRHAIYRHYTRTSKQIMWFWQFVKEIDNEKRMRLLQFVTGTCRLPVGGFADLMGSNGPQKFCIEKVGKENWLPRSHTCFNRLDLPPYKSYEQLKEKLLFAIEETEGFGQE

Key:
[1] = molecular target: wild-type RNF11 tagged with a V5 epitope (N2A V5-RNF11) (human) (UniProt Q9Y3C5); assay: co-IP; lysates of N2A cells transduced with V5-RNF11 lentivirus, with or without transfected FLAG-A20; IP with V5, FLAG or Itch antibody; control IP with antibody omitted; immunoblot with anti-A20, Itch and RNF11
[2] = molecular target: T1, endogenous RNF11 (murine primary cortical neurons) (mouse (endogenous in primary cortical neurons)) (UniProt Q9QYK7); assay: co-IP; lysates of murine primary cortical neurons stimulated with 10 ng/ml TNF-α for 0 or 30 minutes; IP with RNF11 antibody; control IP with antibody omitted; immunoblot with anti-A20 and Itch; densitometry normalised to input, 0 minutes set at 100%
T1 sequence: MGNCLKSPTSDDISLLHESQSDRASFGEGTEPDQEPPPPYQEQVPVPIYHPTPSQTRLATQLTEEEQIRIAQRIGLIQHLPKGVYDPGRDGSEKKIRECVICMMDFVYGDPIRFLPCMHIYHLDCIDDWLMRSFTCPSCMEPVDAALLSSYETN

[3] = molecular target: T2, FLAG-tagged A20 (FLAG-A20), in N2A V5-RNF11 cells (UniProt P21580); assay: co-IP; lysates of N2A cells transduced with V5-RNF11 lentivirus, with or without transfected FLAG-A20; IP with V5, FLAG or Itch antibody; control IP with antibody omitted; immunoblot with anti-A20, Itch and RNF11
T2 sequence: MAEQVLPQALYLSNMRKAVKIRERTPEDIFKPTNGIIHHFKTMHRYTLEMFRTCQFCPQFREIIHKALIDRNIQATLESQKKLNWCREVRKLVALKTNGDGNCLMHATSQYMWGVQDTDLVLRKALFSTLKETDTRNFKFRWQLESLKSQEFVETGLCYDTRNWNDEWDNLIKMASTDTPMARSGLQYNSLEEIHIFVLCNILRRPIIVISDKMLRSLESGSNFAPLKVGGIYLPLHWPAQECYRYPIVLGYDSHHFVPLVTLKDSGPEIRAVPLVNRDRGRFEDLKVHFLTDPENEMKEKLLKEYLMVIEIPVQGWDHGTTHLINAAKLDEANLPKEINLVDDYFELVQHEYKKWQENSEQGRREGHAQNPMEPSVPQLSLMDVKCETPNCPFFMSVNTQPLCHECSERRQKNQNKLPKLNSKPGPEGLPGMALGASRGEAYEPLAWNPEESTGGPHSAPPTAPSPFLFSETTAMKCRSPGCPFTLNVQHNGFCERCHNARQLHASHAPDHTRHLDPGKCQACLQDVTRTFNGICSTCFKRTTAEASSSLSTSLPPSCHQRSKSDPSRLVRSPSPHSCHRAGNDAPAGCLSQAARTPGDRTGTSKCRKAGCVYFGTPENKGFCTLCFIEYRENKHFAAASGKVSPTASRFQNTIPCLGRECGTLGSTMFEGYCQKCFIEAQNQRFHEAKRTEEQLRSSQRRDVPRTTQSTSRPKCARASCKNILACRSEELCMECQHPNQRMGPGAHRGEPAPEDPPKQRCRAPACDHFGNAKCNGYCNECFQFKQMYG

[4] = molecular target: endogenous Itch (N2A cells) (mouse (endogenous in N2A)) (UniProt Q8C863); assay: as above

- binding [1]: binds
Substance: endogenous Itch (N2A cells) (from UniProt Q8C863 1-864)

- binding [2]: binds
Substance: endogenous Itch (murine primary cortical neurons) (from UniProt Q8C863 1-864)

- binding [3]: binds
- binding [4]: binds
Substance: wild-type RNF11 tagged with a V5 epitope (N2A V5-RNF11) (from UniProt Q9Y3C5 1-154)
